Source: PubChem BioAssay AID504375 (National Center for Advancing Translational Sciences (NCATS), 2011)
Among all 1,600 compounds or so, about 25 (2%) were called active. Roughly 7% stayed inconclusive and do not appear here. Calls come from the whole dose curve; as a rule, active = well fitted inhibition curve with a large enough effect; inconclusive = small, poorly fitted or top-dose-only effect, or effect the other way; inactive = no such curve, though single readings can be large or run the other way. The list shows a part of the results.

Protein sequences, listed by entry. Tags and fused reporters are not part of them.
UniProt Q01196, whole entry, looked up: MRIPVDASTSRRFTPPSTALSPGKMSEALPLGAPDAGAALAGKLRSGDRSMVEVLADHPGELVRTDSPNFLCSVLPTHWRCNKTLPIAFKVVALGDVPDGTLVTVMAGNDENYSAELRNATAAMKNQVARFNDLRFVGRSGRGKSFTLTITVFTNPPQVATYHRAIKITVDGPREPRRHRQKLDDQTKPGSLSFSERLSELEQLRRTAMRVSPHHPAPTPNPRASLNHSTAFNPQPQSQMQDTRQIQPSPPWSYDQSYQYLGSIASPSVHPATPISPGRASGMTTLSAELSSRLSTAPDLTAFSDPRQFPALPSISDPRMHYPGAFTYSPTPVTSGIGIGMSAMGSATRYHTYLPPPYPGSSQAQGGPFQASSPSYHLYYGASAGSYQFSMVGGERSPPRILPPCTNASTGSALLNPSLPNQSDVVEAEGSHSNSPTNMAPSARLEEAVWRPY
UniProt Q13951, whole entry, looked up: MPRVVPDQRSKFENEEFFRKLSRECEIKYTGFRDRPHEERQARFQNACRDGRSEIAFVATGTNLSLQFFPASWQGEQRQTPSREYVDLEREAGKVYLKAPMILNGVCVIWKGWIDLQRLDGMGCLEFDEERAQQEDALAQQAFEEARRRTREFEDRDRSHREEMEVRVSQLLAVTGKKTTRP

biological target: Runt-related transcription factor 1 (Homo sapiens) + Core-binding factor subunit beta (Homo sapiens) (UniProt Q01196+Q13951); assay: qHTS Assay for Compounds Blocking the Interaction Between CBF-beta and RUNX1 for the Treatment of Acute Myeloid Leukemia: Hit Validation with Orthogonal Assay; conditions: CBFbeta-RUNX1 binding orthogonal assay, biochemical; series mostly up to 41 µM; activity change, negative = inhibition: at the top concentration
Procedure, shortened: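 This is an orthogonal TR-FRET assay. His6-CBF-beta and biotin-RUNX1 (30 nM each) were preincubated with compound for 30 min, then Tb-anti-His antibody (0.44 ng) and streptavidin-XL665 (5 nM) were added. The signal was read after 90 min.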
% is set by controls: 0 for no effect and ±100 for the full control effect; potency is the fitted concentration of half-maximal effect.

Compound | activity change, negative = inhibition | Potency
COc1ccc(-n2c(-c3ccc(Cl)cc3)c[n+]3c2CCCCC3)cc1 | inactive: 6.69% | 
COc1ccc(N/N=C(\C#N)C(=N)N2CCCCC2)cc1 | inactive: 8.07% | 
COC(=O)CNC(=O)CSc1ccccn1 | inactive: 7.21% | 
COc1cc(NCc2ccccc2O)c2ncccc2c1 | inactive: 9.87% | 
CC(C)(C)S(=O)(=O)/C(C#N)=C/Nc1ccccn1 | inactive: -1.8% | 
N#CCN1CCC2(O)CCCCC2C1c1ccc2c(c1)OCO2 (centres undefined) | inactive: -2.39% | 
COc1ccc(-n2c(=S)[nH]c(=O)c3cccnc32)cc1 | inactive: 7.72% | 
CCCCc1cc(=O)oc2cc(OCc3nn[nH]n3)ccc12 | inactive: 13.3% | 
COc1ccc(CCNC(=S)NC(=O)c2cccc(Cl)c2)cc1OC | inactive: 13.9% | 
COc1ccc(Cn2c(O)c(C=Nc3ccccc3C(=O)O)c3ccccc3c2=O)cc1 | inactive: 17.2% | 
O=C(/C=C/c1cccnc1)/C=C/c1cccnc1 | inactive: -1.77% | 
Cc1c(C(=O)c2ccccc2)oc2ccc3ccccc3c12 | inactive: 11.6% | 
CCOc1ccc(OCc2ccc(C(=O)NN)o2)cc1 | inactive: 3.02% | 
CC1CC(=O)Nc2ccccc2N1S(=O)(=O)c1cccc(F)c1 (centres undefined) | inactive: -1.7% | 
Cc1c(C(=O)/C=C/N(C)C)nnn1-c1ccc(F)c(Cl)c1 | inactive: -1.92% | 
CCOc1ccc(-n2c(C)cc(/C=N/Nc3nc(C)cc(=O)[nH]3)c2C)cc1 | inactive: 4.27% | 
CC(=O)NS(=O)(=O)c1ccc(NC(=O)c2cc3c(=O)n4ccccc4nc3s2)cc1 | inactive: 47.1% | 
C/C(=N\NC1=NCCN1)c1ccc(Cl)cc1 | inactive: -5.51% | 
COc1ccccc1N1CC(C)(C)C(=O)N(C(=O)c2ccc(C)cc2)C1=S | inactive: -1.84% | 
Cn1nc(-c2ccccc2)cc1NS(=O)(=O)c1ccccc1 | inactive: 14.9% | 
O=[N+]([O-])c1cccnc1Oc1ccccc1F | inactive: -10.8% | 
CCC1(C(=O)OC)CCc2c(cc(OC)c3ccccc23)C1=O (centres undefined) | inactive: 4.72% | 
O=C1COc2cccnc2N1 | inactive: -2.97% | 
CCOC(=O)c1sc(NC(=O)CSC(=S)N2CCOCC2)nc1C | inactive: 4.21% | 

Three entries from above, arranged by heavy-atom count, high to low:
Compound | activity change, negative = inhibition | Potency
CCOc1ccc(-n2c(C)cc(/C=N/Nc3nc(C)cc(=O)[nH]3)c2C)cc1 | inactive: 4.27% | 
COc1ccc(CCNC(=S)NC(=O)c2cccc(Cl)c2)cc1OC | inactive: 13.9% | 
CCOc1ccc(OCc2ccc(C(=O)NN)o2)cc1 | inactive: 3.02% | 

(further entries)

Compound | activity change, negative = inhibition | Potency
Cc1nn2c(NCCCn3ccnc3)cc(C(C)C)nc2c1-c1ccccc1 | inactive: 4.28% | 
CCCCNc1ccc2c3c(cccc13)C(=O)N(CCCC)C2=O | inactive: 29.7% | 
Cc1cc(-n2cnc(-c3cn(C)nc3C)n2)no1 | inactive: -8.1% | 
CN(C)C(=O)Nc1ccccc1 | inactive: 8.07% | 
CCOC(=O)Nc1c2ccccc2nc2ccccc12 | inactive: 32.2% | 
CCCCn1cc([N+](=O)[O-])nc1C | inactive: -2.36% | 
CCCn1nc(NC(=O)c2ccco2)c2cc3cc(C)ccc3nc21 | inactive: 36.3% | 
S=c1[nH]nc(-c2ccccn2)n1/N=C/c1ccco1 | inactive: -14.1% | 
COC(=O)[C@H](C)NC(=O)NCc1ccccc1 | inactive: 9.91% | 
S=C(Nc1ccccc1)Nc1nccs1 | inactive: -5.57% | 
S=c1[nH]ccn1-c1ccccc1Cl | inactive: -1.77% | 
COC(=O)c1scc(C)c1NS(=O)(=O)c1ccc(NC(C)=O)cc1 | inactive: -0.979% | 
CC1SCC(=NOCc2c(Cl)cccc2Cl)CS1 (centres undefined) | inactive: 16.9% | 
Cc1ccc(C#N)c(SCc2ccccc2F)n1 | inactive: 11.8% | 
Clc1nc(Cl)nc(-c2cn(-c3ccccc3)c3ccccc23)n1 | inactive: -21.3% | 
CC1=CC2=NC(=O)/C(=C/c3coc4ccccc4c3=O)C(=N)N2O1 | inactive: 36.4% | 
Cc1cc(C)c(OCC(=O)N(Cc2ccc(N(C)C)cc2)C2CCS(=O)(=O)C2)c(C)c1 (centres undefined) | inactive: 1.38% | 
CCCCCCC(=O)N(O)C1CC(=O)N(c2ccc(Cl)cc2)C1=O (centres undefined) | inactive: 14.4% | 
COc1ccc(CCn2cnc3c([nH]c4ccccc43)c2=O)cc1 | inactive: -7.11% | 
NC(=O)/C(=C\c1ccncc1)c1cccc2ccccc12 | inactive: 16.1% | 
CCOC(=O)Cc1c[nH]c(=S)[nH]c1=O | inactive: -1.49% | 
O=C1c2cccc(Sc3ccccc3)c2C(=O)c2c(Sc3ccccc3)cccc21 | inactive: 10.4% | 
Cn1ccc(=Nc2ccc(NC(=O)c3ccc(N=c4ccn(C)c5ccc([N+](=O)[O-])cc45)cc3)cc2)cc1 | inactive: 25.6% | 
C/C(Cc1ccccc1)=N\NC(=O)CNC(=O)Cc1ccc(Cl)cc1 | inactive: 4% | 

Compound | activity change, negative = inhibition | Potency
O=C(Nc1ccccc1)NC1CCCCNC1=O (centres undefined) | inactive: 6.14% | 
c1ccc2sc(SCSc3nc4ccccc4s3)nc2c1 | inactive: -1.49% | 
CC(C)C(=O)Nc1c(-c2ccccc2)c(=O)c2ccccc2n1C | inactive: 7.32% | 
CCOC(=O)CCCC(=O)N1CCOCCOCCOCC1 | inactive: -2.41% | 
CN(C)S(=O)(=O)c1ccc(Cl)c(NC(=O)CN2CCN(Cc3ccc4c(c3)OCO4)CC2)c1 | inactive: 7.92% | 
C/C(=N\O)c1c(O)cc(-c2ccccc2)n(-c2ccccc2)c1=O | inactive: 0.428% | 
COc1ccc(NS(=O)(=O)c2ccc3c(c2)CCO3)cc1 | inactive: -6.74% | 
CCOC(=O)c1nnsc1-c1ccc(-c2snnc2C(=O)OCC)cc1 | inactive: 1.53% | 
O=C(N/N=C/c1ccco1)c1cc(C2CC2)[nH]n1 | inactive: 10.7% | 
C/C(=N\O)C1CC(CC(=O)O)C1(C)C (centres undefined) | inactive: 5.63% | 
Cc1ccc2nc(-c3ccc(N)cc3)sc2c1 | inactive: 8.16% | 
O=C(CSC(=S)N1CCOCC1)Nc1ncc2c(n1)CCCC2=O | inactive: 17.9% | 
O=C(NC(=S)NNC(=O)c1cnccn1)c1ccc(F)cc1 | inactive: 5.29% [at 82.4 µM] | 
Cc1cc(NC(=O)Nc2cc(Cl)ccc2C)no1 | inactive: 7.84% | 
COC(=O)c1cnc(N2CCOCC2)nc1C(F)(F)F | inactive: -8.14% | 
CCOC(=O)c1nnn2c1nc(N1CCOCC1)c1ccccc12 | inactive: -10.7% | 
Cc1cccc(C)c1NC(=S)N1CCOCC1 | inactive: 3.77% | 
CC(C)(C)OC(=O)N1CCCN(C(=O)Nc2ccccc2)CC1 | inactive: 9% | 
COc1cccc(C2=NN(C(=O)CCCC(=O)O)C(c3cccs3)C2)c1 (centres undefined) | inactive: -3.01% | 
Cc1cc(NC(=O)c2ccc3c(c2)C(=O)N(CC(C)C)C3=O)no1 | inactive: 12.8% | 
CN(C)C=Nc1ccccc1C1C=NNC1=O (centres undefined) | inactive: 29.8% | 
C[C@H](NC(=O)OC(C)(C)C)C(=O)N/N=C/c1ccc2nccnc2c1 | inactive: 30.6% | 
Oc1ccccc1-c1nc(NCc2cccnc2)c2ccccc2n1 | inactive: 0.159% | 
O=S(=O)(Nc1ccccc1)c1ccc2c(c1)CCO2 | inactive: -2.7% | 

Compound | activity change, negative = inhibition | Potency
Cc1[nH]c2ccccc2c1-c1csc(NC(=O)CSCC(=O)O)n1 | inactive: 12.8% | 
COC(=O)c1ccc(S(=O)(=O)N(C2CCCCC2)C2CCCCC2)n1C | inactive: -14% | 
Cc1cc(C)c2c(N)c(-c3nnc(SCc4ccc(Cl)cc4)n3C)sc2n1 | inactive: -7.93% | 
CC1SCC(=NOCc2ccccc2)CS1 (centres undefined) | inactive: -11.7% | 
CC(C)(C)SCCNC(=O)/C=C/c1ccccc1 | inactive: 7.92% | 
CN(C)/C=C1\N=C(c2cccnc2Oc2ccc(Cl)cc2)OC1=O | inactive: 27.6% | 
O=C(NC(=S)Nc1ccccc1N1CCCC1)c1ccco1 | inactive: 3.85% | 
CCN(CCS(=O)(=O)c1ccc(Cl)cc1)C(=O)Nc1ccccc1 | inactive: 4.43% | 
NC(=S)N/N=C/c1ncc(C(F)(F)F)cc1Cl | inactive: 12.6% | 
CN(C)c1ccc(/C=N/N2CCN(c3ccccn3)CC2)cc1 | inactive: 15.1% | 
COc1ccccc1C1=NOC(COC(=O)c2ccc([N+](=O)[O-])cc2)C1 (centres undefined) | inactive: 54.7% | 
Brc1ccc(C2=Nn3c(Cn4nnc5ccccc54)nnc3SC2)cc1 | inactive: -8.99% | 
Fc1ccc(-c2cc(-c3cccs3)cc(-c3ccccc3)n2)cc1 | inactive: -0.905% | 
CC1=Nc2ccccc2N=C(NC(=O)CSC(=S)N2CCCCC2)C1c1ccccc1 (centres undefined) | inactive: -8.42% | 
N#Cc1cnn(-c2ccccc2)c1NC(=O)CN1CCN(c2ccccc2)CC1 | inactive: 6.88% | 
CCOC(=O)c1nnn2c1nc(N1CCN(C)CC1)c1ccccc12 | inactive: 4.32% | 
O=C(O)/C(=C\c1cn(-c2ccccc2)nc1-c1cccnc1)NC(=O)c1ccccc1 | inactive: 8.88% | 
NC(Cc1ccc(O)c(O)c1)C(=O)O (centres undefined) |  | active: 891 nM
Cc1nnn(C23C[C@@H]4C[C@@H](CC(C(=O)N5CCN(c6ccccc6)CC5)(C4)C2)C3)n1 | inactive: 2.34% | 
Cc1onc(-c2ccccc2)c1C(=O)NC(=S)NNC(=O)c1ccco1 | inactive: -16.1% | 
O=C(Nc1ccccc1)Nc1ccc2ccccc2c1 | inactive: 12.4% | 
O=C(Nc1ccccc1F)Oc1cccc(OC(=O)Nc2ccccc2F)c1 | inactive: 6.04% | 
CCOC(=O)CNC(=O)c1cccnc1Oc1ccc(Cl)cc1 | inactive: 7.14% | 
Cc1ccccc1OCC(=O)Nc1nnc(C2CCCCC2)s1 | inactive: 0.404% | 

Compound | activity change, negative = inhibition | Potency
COc1cc(NC2CCCCC2O)c2nc(-c3ccc(Cl)cc3)ccc2c1 (centres undefined) | inactive: 35% | 
N#Cc1cnn(-c2ccccc2)c1NC(=O)CN1CCOCC1 | inactive: -4.99% | 
COc1ccc(CCNC(=O)C(=O)NCC2CCNCC2)cc1OC | inactive: 3.1% | 
C=CCN=C1S/C(=C/c2ccc([N+](=O)[O-])cc2)C(=O)N1CC=C | inactive: 5.33% | 
Cc1onc(-c2ccccc2)c1C(=O)c1ccccc1 | inactive: 0.795% | 
CC1CCN(C2CCN(C(=O)c3ccccc3F)CC2)CC1 | inactive: 14.9% | 
COc1ccc(/C=N/NC(=O)c2ccco2)cc1OCc1ccccc1 | inactive: 3.95% | 
COc1ccccc1NC(=O)OCC#CCOC(=O)Nc1ccccc1OC | inactive: -16.1% | 
COc1cc(OC)c(OC)cc1/C=C1\Oc2cc(OS(C)(=O)=O)ccc2C1=O | inactive: 29.9% | 
COC(=O)Cc1[nH]c(=S)[nH]c1C(=O)OC | inactive: -6.39% | 
O=C(CSc1nnc2n1CCCN2)c1ccccc1 | inactive: -10.6% | 
O=C(CCl)N(CCCNC(=O)C(F)(F)F)c1ccc([N+](=O)[O-])cc1 | inactive: 6.57% | 
CN(C)S(=O)(=O)Nc1cccc(Br)c1 | inactive: 7.51% | 
CN(C)c1cc(-c2ccc(Cl)cc2Cl)oc(=O)c1Cl | inactive: 32.5% | 
Cc1ccc(F)cc1NC(=O)N1c2ccccc2NC(=O)CC1C (centres undefined) | inactive: 0.636% | 
CC1=C(O)C(=O)OC1c1c(Cl)cccc1Cl (centres undefined) | inactive: 8.99% | 
COc1ccc(C2=NOC(CNC(=O)c3ccccc3Br)C2)c(OC)c1 (centres undefined) | inactive: -0.477% | 
O=C(Nc1ccccc1)Nc1ccc(C(F)(F)F)cn1 | inactive: 2.47% | 
C/C(=N\NC(=O)CCc1c(C)n[nH]c1C)c1ccc([N+](=O)[O-])cc1 | inactive: 32.1% | 
CCc1cc2c3c(c1)C(C)CC(C)(C)N3C(=O)/C2=C1\SC(=O)NC1=O (centres undefined) | inactive: -22.1% | 
Cc1cc(C(=O)NNS(=O)(=O)c2ccc(C(C)(C)C)cc2)nn1C(C)(C)C | inactive: 10.6% | 
COc1ccc(CCNS(=O)(=O)c2cnc(Cl)c(Br)c2)cc1OC | inactive: -3.52% | 
c1ccc(-c2ccc(C3=Nn4c(nnc4-c4cccs4)SC3)cc2)cc1 | inactive: 2.54% | 

Structural class: those above containing an aryl thioether with sulfur outside any ring.
Compound | activity change, negative = inhibition | Potency
COC(=O)CNC(=O)CSc1ccccn1 | inactive: 7.21% | 
Cc1ccc(C#N)c(SCc2ccccc2F)n1 | inactive: 11.8% | 
O=C1c2cccc(Sc3ccccc3)c2C(=O)c2c(Sc3ccccc3)cccc21 | inactive: 10.4% | 
c1ccc2sc(SCSc3nc4ccccc4s3)nc2c1 | inactive: -1.49% | 
Cc1cc(C)c2c(N)c(-c3nnc(SCc4ccc(Cl)cc4)n3C)sc2n1 | inactive: -7.93% | 
O=C(CSc1nnc2n1CCCN2)c1ccccc1 | inactive: -10.6% | 
